The nature of this test: qHTS Assay for Lipid Storage Modulators in Drosophila S3 Cells.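 On cell number change: cells counted by Cell Tracker Red CMTPX staining in the red channel.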 To be noted: BODIPY lipid droplet fluorescence, 18-24 h; for cell number change: measured here: cell count max response, cells fed with added oleic acid. A digest of the protocol: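 Drosophila S3 cells loaded with oleic acid (400 uM, as added) and compounds at several concentrations; lipid droplets imaged by 488-nm laser-scanning cytometry, 500–530 nm intensity and object ratio to cell channel. Percent activity normalized to 20 uM Triacsin C.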
On the technique in general: In qHTS, concentration-response curves come from the screen itself.

Where [1] appears, read: measured here: lipid fluorescence (Fed channel) AC50, cells fed with added oleic acid.
Where [2] appears, read: measured here: cell number channel AC50, cells fed with added oleic acid.

Each structure is given as a SMILES string. Some of the results follow. Shown are side measurements of this screen, not its main read-out; they come without a call. Compounds called inactive in the main read-out are mostly missing here. Potencies come from curve fits of mixed quality, noted in brackets.

In PubChem BioAssay AID2685 (National Center for Advancing Translational Sciences (NCATS), 2010) one finds cell number change and AC50 data, which are given here for 56 compounds.

As usually defined, the AC50 is the midpoint of the concentration-response curve, whichever way the signal moves. A high value points to activity only at high concentration. Take `COc1cc(OC)c(C(=S)N2CCCC2)cc1OC`: the cell number change is -4.01%. In addition, under setting [1], the AC50 was 29.1 µM [rising, single point].
Take `CC(C)Oc1cccc(C(=O)C2CCCN(C(=O)c3cc(C(F)(F)F)[nH]n3)C2)c1` (stereo not drawn): the cell number change is -16.4%. In addition, the concentration at half-maximal activity (AC50) under setting [1] was 16.4 µM [rising, partial curve].
As for `Cc1ccccc1/C=C/c1nc2ccccc2c(=O)[nH]1`, the cell number change was -24.9%.
As for `O=C(NC1CCCC1)c1ccc(CNc2c(N3CCOCC3)c(=O)c2=O)cc1`, the cell number change is 6.69%.
On to `CN(C(=O)CS(=O)(=O)Cc1ccccc1Cl)c1ccccc1`, for which the cell number change was determined as 59.7%. The AC50 under setting [2] was 20.6 µM [rising, partial curve]. Moreover, the AC50 under setting [1] was 29.1 µM [rising, partial curve].
`CCN(CC(=O)Nc1c(F)cccc1F)C(=O)CSCc1c(C)noc1C`: the cell number change stood at 1.39%. For the same compound, under setting [1], the AC50 was 1.16 µM [falling, full curve].
For the compound `CCOC(=O)N1CCC(NC(=O)CCCN2C(=O)CSc3ncccc32)CC1`, the cell number change is -22.3%. Besides, the AC50 under setting [2] is 0.00411 µM [falling, full curve, poor fit]. Under setting [1], the AC50 is 0.13 µM [falling, full curve].
`Cc1sc2nc(CSCC(=O)Nc3ccc(Cl)cc3F)[nH]c(=O)c2c1C`: the cell number change is 23.5%. Under setting [1], the AC50 is 23.1 µM [rising, partial curve, poor fit].
Take `CCCCN(C)C(=O)c1cccc(OC2CCN(CC(C)(C)C)CC2)c1`: the cell number change is -16.8%.
Take `CC1(C)CC(=O)C2=C(C1)N(c1cccc(Cl)c1)C(=O)NC2(C(F)(F)F)C(F)(F)F`: the cell number change came out at 13.4%. Further, the AC50 under setting [2] is 0.082 µM [rising, partial curve, poor fit].
Take `COc1cccc(/C=N/NC(=O)c2ccccc2NC(=O)c2ccco2)c1OC`: the cell number change was -2.99%. Also, under setting [1], the AC50 is 0.58 µM [rising, partial curve].
As for `Cc1cccc(OCC(=O)NNC(=O)c2cc(S(=O)(=O)N(C)C)ccc2N2CCCC2)c1`, the cell number change is -3.11%. In addition, the AC50 under setting [1] was 29.1 µM [rising, single point].
Turning to `NC(=O)[C@@H]1[C@@H]2C(=O)N(c3ccc(F)cc3)C(=O)[C@@H]2[C@H]2C=Cc3ccccc3N21`, the cell number change is -13.2%. Further, the AC50 under setting [1] was 20.6 µM [falling, partial curve].
`Cc1ccc2nc(/C(C#N)=C\c3ccc(OC(=O)c4cccs4)cc3)[nH]c2c1`: the cell number change was -29.6%. For the same compound, the AC50 under setting [1] was 18.4 µM [falling, single point].
On to `COCCN1C(=O)C(=O)/C(=C(/O)c2ccc(S(=O)(=O)N3CCOCC3)cc2)C1c1ccc(OC)c(OC)c1` (stereo not drawn), for which the cell number change worked out at 40.3%. The half-maximal activity concentration (AC50) under setting [2] is 29.1 µM [rising, single point]. For the same compound, the AC50 under setting [1] is 1.3 µM [rising, partial curve, poor fit].
As for `COc1ccc(CCN(C)Cc2c(O)ccc3cc(Br)ccc23)cc1OC`, under setting [1], the AC50 was 0.58 µM [rising, single point].
In the case of `CCO/C=C/C(O)(CNC(=O)c1ccc(C(C)(C)C)cc1)C(F)(F)F` (stereo not drawn), the cell number change was determined as 0.967%.
As to `O=C(COc1ccc2c(c1)OCO2)Nc1nccs1`, the cell number change is -9.52%. The AC50 under setting [1] was 0.206 µM [falling, single point].
On to `COc1cc(/C=C/c2ccc3cccc(O)c3n2)c(Br)cc1O`, for which the cell number change stood at 20.4%. In addition, under setting [1], the AC50 was 6.51 µM [falling, single point].
Take `COc1ccc(-c2noc(CN(C(=O)c3ccc(OC(C)=O)cc3)C(C)C)n2)cc1OC`: the AC50 runs as follows: under setting [2], 6.51 µM [falling, single point]; under setting [1], 6.51 µM [rising, single point].
Turning to `Cc1cccc(N2CC(C(=O)Nc3nnc(SCC(=O)N4CCOCC4)s3)CC2=O)c1` (stereo not drawn), the cell number change was 41.2%. Further, the AC50 under setting [2] is 20 µM [rising, single point]. Under setting [1], the AC50 is 35.5 µM [rising, partial curve, poor fit].
As to `CCOc1cc(/C=N/NC(=O)c2ccccc2OCc2ccc(F)cc2)ccc1O`, the cell number change was -30.1%. In addition, the concentration at half-maximal activity (AC50) under setting [2] was 23.1 µM [falling, single point].
For `CCOC(=O)Cn1c(-c2ccc(Cl)nc2)nc2ccccc21`, the AC50 under setting [1] was 3.66 µM [falling, full curve].
Consider `c1ccc(-c2noc(-c3ccc4c(c3)OCO4)n2)cc1`, for which the cell number change came out at 25.8%.
Turning to `O=C(NCCc1ccccc1)c1cnn2c(C(F)F)cc(C3CC3)nc12`, the cell number change was found to be 37.3%. Under setting [2], the AC50 was 0.92 µM [rising, full curve, poor fit]. Moreover, the AC50 under setting [1] is 0.82 µM [rising, full curve].
Turning to `Cc1cc(CNC(=O)C(C)Cc2ccccc2)nn1C` (stereo not drawn), the cell number change amounted to 19.2%. The AC50 under setting [1] is 0.13 µM [falling, full curve, poor fit].
On to `O=C(Nc1n[nH]c(C(F)(F)F)n1)C1CC1`, for which the cell number change was -4.74%. For the same compound, the AC50 under setting [1] was 0.0326 µM [falling, full curve, poor fit].
Consider `O=C(CN(C(=O)Cn1nnc(-c2ccc(F)cc2)n1)c1cccc(F)c1)NC1CCCC1`, for which the cell number change was determined as 36.8%. The AC50 under setting [2] was 5.8 µM [rising, partial curve, poor fit].
Turning to `O=C(Nc1cc(=O)[nH]c(=O)[nH]1)c1cccc(Br)c1`, the cell number change is -51.9%. Further, under setting [2], the AC50 was 18.4 µM [falling, single point]. Besides, the AC50 under setting [1] was 29.1 µM [falling, single point].
With `O=S(=O)(NCCCCNS(=O)(=O)c1c(F)cccc1F)c1ccc2c(c1)OCCO2`, the cell number change is -3.81%. For the same compound, under setting [1], the AC50 is 5.17 µM [falling, single point].
In the case of `CC(C)(C)NC(=O)COc1ccccc1C#N`, the AC50 under setting [1] is 0.164 µM [falling, full curve].
For `Cc1ccc(C2CC(c3ccco3)n3ncnc3N2)cc1` (stereo not drawn), the cell number change came to 30.2%. For the same compound, the AC50 under setting [2] was 6.51 µM [rising, single point]. Under setting [1], the AC50 is 3.66 µM [rising, single point].
Regarding `CCC(C)n1c(SCC(=O)/C(C#N)=C(\C)N)nc2ccccc2c1=O` (stereo not drawn), the cell number change was -2.22%.
Consider `Cc1ccc(S(=O)(=O)Nc2ccc3ncccc3c2)cc1`, for which the cell number change is -25.3%. The AC50 under setting [1] was 8.2 µM [falling, partial curve].
`CC(C)c1nc(N2CCCC2)c(C#N)c2c1CCCC2`: under setting [2], the concentration at half-maximal activity (AC50) was 0.164 µM [falling, full curve, poor fit].
In the case of `COc1ccc(/C=N/Nc2cc(C)nc(-n3nc(C)cc3C)n2)cc1`, the cell number change was -69.8%. Besides, the half-maximal activity concentration (AC50) under setting [2] is 18.4 µM [falling, partial curve]. The AC50 under setting [1] was 0.058 µM [falling, full curve, poor fit].
With `CCc1ccc(S(=O)(=O)c2ccc(-n3nc(C)cc3N)cc2)cc1`, the cell number change was found to be 39.4%. Besides, the AC50 under setting [2] is 8.2 µM [rising, partial curve, poor fit]. Also, the AC50 under setting [1] was 6.51 µM [rising, single point].
On to `CO/N=C\CC(=O)Nc1ccc(F)cc1`, for which the cell number change was -104%. Further, under setting [2], the AC50 is 14.6 µM [falling, partial curve]. In addition, under setting [1], the AC50 was 14.6 µM [falling, partial curve].
In the case of `COc1ccc(/C=C2/C(=N)N3N=C(CC(=O)N4CCCC4)SC3=NC2=O)cc1OC`, the cell number change was determined as 31.5%. The AC50 under setting [2] was 14.6 µM [rising, partial curve, poor fit]. In addition, under setting [1], the half-maximal activity concentration (AC50) is 29.1 µM [rising, single point].
Consider `Cc1cccc(NC(=O)/C(C#N)=C/c2ccc(Sc3ccccc3)o2)c1C`, for which the cell number change worked out at 11%. Further, the AC50 under setting [1] is 3.26 µM [falling, single point].
As for `COc1cc(CO)ccc1Oc1nnnn1-c1ccc(C(N)=O)cc1`, the cell number change is -4.65%. Further, the AC50 under setting [1] was 0.0326 µM [falling, full curve, poor fit].
In the case of `CCOC(=O)c1c(C2COc3ccccc3O2)csc1NC(=O)c1ccccc1` (stereo not drawn), the cell number change came to 87.5%. Further, the AC50 under setting [2] was 0.411 µM [rising, partial curve, poor fit]. Under setting [1], the AC50 is 2.31 µM [rising, partial curve].
Take `COc1ccc(OC)c(/C=C2\NC(=O)NC2=O)c1`: the cell number change was -14.9%. Moreover, the concentration at half-maximal activity (AC50) under setting [1] is 6.51 µM [rising, partial curve, poor fit].
In the case of `CC1=[N+](CC(=O)c2ccccc2)CCn2cccc21`, the cell number change was -2.44%. Moreover, the AC50 under setting [2] is 0.651 µM [falling, full curve, poor fit].
On to `C=CCn1c(SCC(=O)N(C)C)nc2sc3c(c2c1=O)CCC3`, for which the cell number change worked out at 1.83%. Moreover, under setting [1], the AC50 was 0.517 µM [falling, single point].
For the compound `COc1ccc(-c2nnc(SC(C)C(=O)Nc3c(C)n(C)n(-c4ccccc4)c3=O)o2)cc1` (stereo not drawn), the cell number change is -25%. Besides, the AC50 under setting [1] is 14.6 µM [falling, single point].
Consider `Cc1ccc(/C=C/C(=O)NN2CCN(C)CC2)cc1`, for which the cell number change came to 14.7%. The half-maximal activity concentration (AC50) under setting [1] was 29.1 µM [rising, single point].
As for `CS(=O)(=O)Nc1ccc(C(=O)NCc2cccnc2)cc1`, the cell number change was -7.34%. Besides, under setting [1], the AC50 is 29.1 µM [falling, single point].
For the compound `Oc1ccc(O)c(Cc2nc3ccccc3[nH]2)c1`, the cell number change stood at 1.88%. Moreover, the AC50 under setting [2] was 6.51 µM [falling, single point].
As for `CC(=O)NCCc1nc2cc(NC(=O)c3ccc(F)cc3)ccc2n1C`, the cell number change is 2.84%.
Regarding `CC1=C2C(CCS2(=O)=O)CC2(C1)C(=O)OC(C)(C)OC2=O` (stereo not drawn), the cell number change is -36.6%. In addition, under setting [2], the half-maximal activity concentration (AC50) was 0.731 µM [falling, full curve]. For the same compound, the AC50 under setting [1] is 0.731 µM [falling, full curve].
Take `COc1cccc2cc(/C(C)=N/NC(=O)c3ccco3)oc12`: the cell number change is -25.7%. Further, the AC50 under setting [1] was 0.651 µM [falling, full curve].
In the case of `Cc1ccc(NC(=O)c2ccc(F)cc2)cc1S(=O)(=O)N1CCCCCC1`, the cell number change is 4.24%. Under setting [2], the AC50 was 6.51 µM [rising, partial curve, poor fit]. Further, under setting [1], the AC50 is 4.11 µM [rising, single point].
Take `C=Cc1cccc(NC(=O)c2ccc(NC(=O)c3ccco3)cc2)c1`: the cell number change is -19.8%. Also, the AC50 under setting [2] was 4.11 µM [falling, single point]. The AC50 under setting [1] was 6.51 µM [falling, single point].
For `Cc1sc(NC(=O)CSc2ncn(-c3ccccc3)n2)nc1-c1ccccc1`, the cell number change is -31.9%. Besides, the AC50 under setting [2] was 29.1 µM [falling, single point]. The AC50 under setting [1] was 29.1 µM [falling, single point].
On to `NC(=O)c1ccsc1NC(=O)COC(=O)C1=NNC(=O)CC1`, for which the cell number change is 21.2%. Further, the concentration at half-maximal activity (AC50) under setting [2] was 0.082 µM [rising, full curve]. Further, under setting [1], the AC50 was 5.8 µM [falling, partial curve].
